# In the supplement of paper PMC10849652:
# Amino acid sequences for entries named in this document (tags omitted). A change or cut given only in a name is not applied to a line headed by its entry.
# UniProt O76095: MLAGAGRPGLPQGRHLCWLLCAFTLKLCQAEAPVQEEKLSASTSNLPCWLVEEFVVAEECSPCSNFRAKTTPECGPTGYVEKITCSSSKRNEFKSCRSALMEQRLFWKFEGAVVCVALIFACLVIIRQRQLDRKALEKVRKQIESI
# UniProt Q4G0X4: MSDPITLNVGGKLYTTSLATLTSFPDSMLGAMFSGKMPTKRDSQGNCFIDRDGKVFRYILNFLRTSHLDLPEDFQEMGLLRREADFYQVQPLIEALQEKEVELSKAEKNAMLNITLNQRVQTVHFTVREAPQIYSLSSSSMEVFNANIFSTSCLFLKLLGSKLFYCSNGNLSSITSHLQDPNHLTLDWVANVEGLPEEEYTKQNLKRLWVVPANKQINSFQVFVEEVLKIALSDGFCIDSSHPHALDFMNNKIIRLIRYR
# UniProt Q00978: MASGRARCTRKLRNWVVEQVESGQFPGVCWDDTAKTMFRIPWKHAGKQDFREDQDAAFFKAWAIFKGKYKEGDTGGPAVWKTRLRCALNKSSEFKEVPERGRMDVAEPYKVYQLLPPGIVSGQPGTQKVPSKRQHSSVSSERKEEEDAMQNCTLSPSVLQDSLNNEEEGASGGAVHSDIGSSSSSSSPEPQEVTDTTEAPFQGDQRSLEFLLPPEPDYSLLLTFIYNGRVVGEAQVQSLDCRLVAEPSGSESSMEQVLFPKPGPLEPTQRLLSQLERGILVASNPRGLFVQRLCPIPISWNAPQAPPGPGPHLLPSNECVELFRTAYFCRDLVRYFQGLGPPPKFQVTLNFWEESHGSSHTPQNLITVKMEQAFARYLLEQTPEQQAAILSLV
# UniProt Q9H910: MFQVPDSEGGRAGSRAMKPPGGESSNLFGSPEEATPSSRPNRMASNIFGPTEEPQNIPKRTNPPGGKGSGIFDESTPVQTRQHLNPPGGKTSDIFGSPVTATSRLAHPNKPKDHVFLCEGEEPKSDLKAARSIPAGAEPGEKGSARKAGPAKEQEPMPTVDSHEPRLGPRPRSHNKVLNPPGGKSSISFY
# UniProt Q06033: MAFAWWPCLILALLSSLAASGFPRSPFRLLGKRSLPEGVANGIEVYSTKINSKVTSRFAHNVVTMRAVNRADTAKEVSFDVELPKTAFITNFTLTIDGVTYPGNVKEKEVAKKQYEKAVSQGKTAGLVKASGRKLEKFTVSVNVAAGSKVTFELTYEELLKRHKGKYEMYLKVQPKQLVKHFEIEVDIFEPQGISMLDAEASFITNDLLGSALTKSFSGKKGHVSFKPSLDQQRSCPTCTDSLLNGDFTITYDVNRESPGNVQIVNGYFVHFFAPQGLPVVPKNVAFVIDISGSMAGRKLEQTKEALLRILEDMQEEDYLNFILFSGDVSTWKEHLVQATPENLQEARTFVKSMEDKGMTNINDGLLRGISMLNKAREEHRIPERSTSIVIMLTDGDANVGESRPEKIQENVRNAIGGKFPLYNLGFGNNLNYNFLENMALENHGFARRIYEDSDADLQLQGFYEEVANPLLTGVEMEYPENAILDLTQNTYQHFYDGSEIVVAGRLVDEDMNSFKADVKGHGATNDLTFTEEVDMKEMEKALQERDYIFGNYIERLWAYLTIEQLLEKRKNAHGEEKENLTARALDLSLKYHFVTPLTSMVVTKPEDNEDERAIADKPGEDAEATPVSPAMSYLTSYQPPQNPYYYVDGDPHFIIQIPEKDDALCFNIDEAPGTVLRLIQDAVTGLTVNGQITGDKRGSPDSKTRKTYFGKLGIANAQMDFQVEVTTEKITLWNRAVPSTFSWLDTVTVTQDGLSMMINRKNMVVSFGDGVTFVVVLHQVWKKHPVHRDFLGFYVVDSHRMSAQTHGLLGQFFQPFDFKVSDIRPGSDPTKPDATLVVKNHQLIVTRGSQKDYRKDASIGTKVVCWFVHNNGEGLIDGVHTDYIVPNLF
# UniProt Q9H8E8: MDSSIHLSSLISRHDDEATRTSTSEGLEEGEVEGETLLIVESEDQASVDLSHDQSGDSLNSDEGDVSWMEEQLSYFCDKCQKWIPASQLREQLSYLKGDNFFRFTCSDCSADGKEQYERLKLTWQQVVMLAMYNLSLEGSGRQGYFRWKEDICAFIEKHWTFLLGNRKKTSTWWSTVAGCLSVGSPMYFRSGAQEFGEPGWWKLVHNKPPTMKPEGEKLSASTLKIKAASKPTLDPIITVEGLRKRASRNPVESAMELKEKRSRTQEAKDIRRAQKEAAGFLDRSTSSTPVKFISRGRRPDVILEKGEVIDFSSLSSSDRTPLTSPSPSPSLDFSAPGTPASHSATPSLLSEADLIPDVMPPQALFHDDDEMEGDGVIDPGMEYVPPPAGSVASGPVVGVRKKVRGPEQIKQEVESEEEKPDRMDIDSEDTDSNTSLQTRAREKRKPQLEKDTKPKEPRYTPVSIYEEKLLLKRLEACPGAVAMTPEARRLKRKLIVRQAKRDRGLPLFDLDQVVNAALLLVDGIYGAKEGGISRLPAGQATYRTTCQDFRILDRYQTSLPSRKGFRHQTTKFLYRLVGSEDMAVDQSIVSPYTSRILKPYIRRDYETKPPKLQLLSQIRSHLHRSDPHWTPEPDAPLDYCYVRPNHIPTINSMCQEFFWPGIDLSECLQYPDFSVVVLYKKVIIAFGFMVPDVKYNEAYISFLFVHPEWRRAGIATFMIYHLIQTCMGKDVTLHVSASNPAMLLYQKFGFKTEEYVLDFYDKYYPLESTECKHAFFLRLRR
# UniProt Q9UL03, whole entry, looked up: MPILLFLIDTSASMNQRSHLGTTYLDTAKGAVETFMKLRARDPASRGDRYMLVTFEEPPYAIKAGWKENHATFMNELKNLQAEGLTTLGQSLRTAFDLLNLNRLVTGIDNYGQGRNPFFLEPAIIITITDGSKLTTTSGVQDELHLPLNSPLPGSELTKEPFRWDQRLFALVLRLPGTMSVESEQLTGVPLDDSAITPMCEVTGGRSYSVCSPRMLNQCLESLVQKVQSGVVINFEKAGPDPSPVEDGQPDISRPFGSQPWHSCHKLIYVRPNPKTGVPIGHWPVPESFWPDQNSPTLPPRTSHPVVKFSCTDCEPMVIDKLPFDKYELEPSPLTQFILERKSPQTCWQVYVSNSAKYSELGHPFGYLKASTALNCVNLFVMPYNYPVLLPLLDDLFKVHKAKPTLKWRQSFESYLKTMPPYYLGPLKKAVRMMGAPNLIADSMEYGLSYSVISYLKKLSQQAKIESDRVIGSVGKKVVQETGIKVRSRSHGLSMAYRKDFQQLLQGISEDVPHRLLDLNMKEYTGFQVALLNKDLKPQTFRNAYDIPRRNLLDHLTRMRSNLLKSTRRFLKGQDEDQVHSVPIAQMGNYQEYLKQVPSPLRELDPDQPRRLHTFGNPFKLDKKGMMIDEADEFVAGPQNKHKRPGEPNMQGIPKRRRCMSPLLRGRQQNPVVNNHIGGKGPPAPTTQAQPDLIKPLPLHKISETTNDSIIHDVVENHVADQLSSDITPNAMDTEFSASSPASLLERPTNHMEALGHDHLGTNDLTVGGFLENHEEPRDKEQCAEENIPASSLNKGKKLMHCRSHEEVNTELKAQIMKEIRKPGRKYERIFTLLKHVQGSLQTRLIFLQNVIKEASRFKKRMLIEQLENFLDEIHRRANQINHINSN
# UniProt Q14681: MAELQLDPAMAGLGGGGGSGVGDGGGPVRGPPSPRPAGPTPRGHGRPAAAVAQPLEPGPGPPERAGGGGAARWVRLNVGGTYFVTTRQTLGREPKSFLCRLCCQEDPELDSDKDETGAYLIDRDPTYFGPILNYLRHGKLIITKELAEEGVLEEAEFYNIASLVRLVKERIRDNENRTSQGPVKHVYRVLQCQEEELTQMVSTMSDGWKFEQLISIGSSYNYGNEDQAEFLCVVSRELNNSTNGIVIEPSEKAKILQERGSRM
# UniProt Q96DY2: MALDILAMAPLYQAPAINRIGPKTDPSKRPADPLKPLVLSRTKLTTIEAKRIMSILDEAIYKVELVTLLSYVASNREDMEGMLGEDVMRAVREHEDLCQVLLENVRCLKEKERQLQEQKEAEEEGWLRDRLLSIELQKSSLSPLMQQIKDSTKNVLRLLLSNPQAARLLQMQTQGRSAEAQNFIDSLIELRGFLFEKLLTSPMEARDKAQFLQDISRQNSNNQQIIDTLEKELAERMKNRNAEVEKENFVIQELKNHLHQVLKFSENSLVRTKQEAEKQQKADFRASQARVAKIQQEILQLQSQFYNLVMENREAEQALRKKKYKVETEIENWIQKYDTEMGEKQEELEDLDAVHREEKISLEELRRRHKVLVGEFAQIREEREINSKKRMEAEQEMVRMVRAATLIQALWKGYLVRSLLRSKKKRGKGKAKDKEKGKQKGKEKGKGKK
# UniProt Q15051: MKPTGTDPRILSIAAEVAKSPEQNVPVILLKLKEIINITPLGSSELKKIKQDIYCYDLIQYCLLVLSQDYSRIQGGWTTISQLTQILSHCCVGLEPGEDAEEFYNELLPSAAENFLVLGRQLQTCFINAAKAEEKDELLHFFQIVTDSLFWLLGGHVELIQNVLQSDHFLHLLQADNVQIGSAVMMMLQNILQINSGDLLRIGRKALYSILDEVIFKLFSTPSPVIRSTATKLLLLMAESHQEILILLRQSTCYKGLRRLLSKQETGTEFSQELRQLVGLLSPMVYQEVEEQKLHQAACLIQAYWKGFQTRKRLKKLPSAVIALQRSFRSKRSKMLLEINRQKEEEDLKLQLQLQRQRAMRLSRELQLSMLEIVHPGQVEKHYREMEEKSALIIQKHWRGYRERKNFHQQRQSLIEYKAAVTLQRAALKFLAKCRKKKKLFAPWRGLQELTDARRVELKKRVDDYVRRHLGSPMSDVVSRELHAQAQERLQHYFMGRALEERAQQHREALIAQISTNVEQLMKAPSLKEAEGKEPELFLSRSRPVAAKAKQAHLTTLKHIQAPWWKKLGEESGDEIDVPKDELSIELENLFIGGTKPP
# UniProt Q12809: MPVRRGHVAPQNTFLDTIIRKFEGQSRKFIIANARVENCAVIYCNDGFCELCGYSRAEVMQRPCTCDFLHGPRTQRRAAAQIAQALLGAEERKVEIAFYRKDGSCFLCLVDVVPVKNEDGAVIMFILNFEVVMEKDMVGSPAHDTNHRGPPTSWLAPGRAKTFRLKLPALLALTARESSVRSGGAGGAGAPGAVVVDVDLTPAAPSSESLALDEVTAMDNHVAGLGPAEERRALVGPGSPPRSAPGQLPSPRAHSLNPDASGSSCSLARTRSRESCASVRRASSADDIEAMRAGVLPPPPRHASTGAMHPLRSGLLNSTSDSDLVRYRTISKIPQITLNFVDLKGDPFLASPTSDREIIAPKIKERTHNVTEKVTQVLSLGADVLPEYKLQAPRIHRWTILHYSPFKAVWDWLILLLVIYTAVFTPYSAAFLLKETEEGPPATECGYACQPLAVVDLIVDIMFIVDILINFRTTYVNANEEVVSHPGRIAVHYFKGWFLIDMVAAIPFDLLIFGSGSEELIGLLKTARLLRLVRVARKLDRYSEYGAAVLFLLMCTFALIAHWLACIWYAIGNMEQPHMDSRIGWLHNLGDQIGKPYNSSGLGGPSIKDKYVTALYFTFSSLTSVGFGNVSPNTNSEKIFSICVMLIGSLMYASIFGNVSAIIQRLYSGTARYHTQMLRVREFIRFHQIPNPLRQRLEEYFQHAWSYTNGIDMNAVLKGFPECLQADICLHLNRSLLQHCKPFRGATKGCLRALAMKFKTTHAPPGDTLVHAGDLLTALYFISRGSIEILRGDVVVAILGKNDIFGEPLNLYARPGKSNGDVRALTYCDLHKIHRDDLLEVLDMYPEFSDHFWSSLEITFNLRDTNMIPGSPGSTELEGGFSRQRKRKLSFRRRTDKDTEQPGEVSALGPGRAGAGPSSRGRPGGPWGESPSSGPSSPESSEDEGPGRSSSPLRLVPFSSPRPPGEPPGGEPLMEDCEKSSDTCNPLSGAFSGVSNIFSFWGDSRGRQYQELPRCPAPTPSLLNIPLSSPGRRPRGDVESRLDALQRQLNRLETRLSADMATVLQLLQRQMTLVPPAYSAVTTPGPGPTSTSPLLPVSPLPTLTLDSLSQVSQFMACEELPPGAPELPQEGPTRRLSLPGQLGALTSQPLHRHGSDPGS
# UniProt Q8IWB1: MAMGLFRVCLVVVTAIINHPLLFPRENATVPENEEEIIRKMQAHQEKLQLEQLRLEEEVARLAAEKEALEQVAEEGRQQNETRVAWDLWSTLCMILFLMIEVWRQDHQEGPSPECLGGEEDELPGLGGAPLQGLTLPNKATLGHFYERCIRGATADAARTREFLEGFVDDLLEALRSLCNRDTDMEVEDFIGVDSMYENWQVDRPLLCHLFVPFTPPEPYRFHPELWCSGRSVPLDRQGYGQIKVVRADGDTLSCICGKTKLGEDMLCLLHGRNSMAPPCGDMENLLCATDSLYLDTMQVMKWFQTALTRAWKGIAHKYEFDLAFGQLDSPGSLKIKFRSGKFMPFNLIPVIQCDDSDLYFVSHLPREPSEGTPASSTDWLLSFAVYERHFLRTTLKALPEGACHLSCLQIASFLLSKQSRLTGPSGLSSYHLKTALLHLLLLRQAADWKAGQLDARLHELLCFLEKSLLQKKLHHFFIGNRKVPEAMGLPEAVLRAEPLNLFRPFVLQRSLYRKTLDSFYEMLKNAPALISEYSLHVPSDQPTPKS
# This is one part of the list.
# Assays:
# Assay in all cases: log2 fold change, soluble protein after heating vs DMSO (PISA); higher = thermal stabilisation; K562 lysate, 10 uM; active = over 0.2 and 3.5 SD of the protein, either way, in both replicates (recomputed)
# [1] = compound: CNC(=O)c1ccc(Nc2ncc(C(F)(F)F)c(NCc3nccnc3N(C)S(C)(=O)=O)n2)cc1 [defactinib]
# Summary of the method: (§1)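 K562 pellets were dounce-homogenised in PBS pH 7.4 with 1 mM MgCl2, and the crude extract at 1 mg/mL protein was treated with 10 μM compound for 30 min. Aliquots were heated for 3 min across 48°C-58°C, pooled, and brought to 0.5% NP-40 at 4°C; soluble protein was the supernatant after 21,000xg for 90 min. Soluble protein was quantified by TMTpro 16plex LC-MS/MS with channel sums equalised, and reported as log2 fold change in thermal stability against DMSO controls, with values from duplicates.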
# [2] = compound: COC(=O)N[C@@H](C)CNc1nccc(-c2cn(C(C)C)nc2-c2cc(Cl)cc(NS(C)(=O)=O)c2F)n1 [encorafenib]
# Summary of the method: as §1
# [3] = compound: COC(=O)[C@H](CCSC)NC(=O)C1=C(C=C(C=C1)NC[C@H](CS)N)C2=CC=CC=C2
# Summary of the method: as §1
# [4] = compound: CNC(=O)C1=CC=CC=C1NC2=NC(=NC=C2Cl)NC3=C(C=C(C=C3)N4CCOCC4)OC
# Summary of the method: as §1
# [5] = compound: CNc1nc(-c2ccc3c(N)n[nH]c3c2)cc(N2C[C@@H](C(=O)NC3CCCCC3)CC[C@H]2C)n1
# Summary of the method: as §1
# [6] = compound: CN1CCc2c(c3ccccc3n2Cc2ccc(C(=O)NO)cc2)C1 [Tubastatin A]
# Summary of the method: as §1
# [7] = compound: COc1cc2nc(-c3cc(F)ccc3O)nc(N[C@@H]3CNC[C@H]3C(C)(C)O)c2cc1OC
# Summary of the method: as §1
# [8] = compound: COc1cc(Nc2ncc3c(n2)-c2ccc(Cl)cc2C(c2c(F)cccc2OC)=NC3)ccc1C(=O)O [alisertib]
# Summary of the method: as §1
# [9] = compound: COc1cc2ncnc(Nc3ccc(F)c(Cl)c3)c2cc1OCCCN1CCOCC1 [gefitinib]
# Summary of the method: as §1
# [10] = compound: CN1CC[C@H](c2c(O)cc(O)c3c(=O)cc(-c4ccccc4Cl)oc23)[C@H](O)C1 [alvocidib]
# Summary of the method: as §1
target,measurement,setting,value
JAK1 (UniProt P23458),log2 fold change,[1],inactive: -0.047
same,log2 fold change,[2],inactive: 0.074
same,log2 fold change,[3],inactive: -0.056
ISG20 (UniProt Q96AZ6),log2 fold change,[4],inactive: 0.007
same,log2 fold change,[5],inactive: 0.043
ITM2C (UniProt Q9NQX7),log2 fold change,[6],inactive: -0.032
same,log2 fold change,[4],inactive: 0.033
same,log2 fold change,[5],inactive: -0.074
same,log2 fold change,[2],inactive: 0.02
same,log2 fold change,[3],inactive: 0.046
same,log2 fold change,[7],inactive: 0.136
JCHAIN (UniProt P01591),log2 fold change,[4],inactive: 0.278
JTB (UniProt O76095),log2 fold change,[6],inactive: 0.035
same,log2 fold change,[4],inactive: -0.066
same,log2 fold change,[1],inactive: -0.048
same,log2 fold change,[5],inactive: 0.022
same,log2 fold change,[2],inactive: 0.02
same,log2 fold change,[3],inactive: -0.037
same,log2 fold change,[8],inactive: -0.038
same,log2 fold change,[7],inactive: 0.024
same,log2 fold change,[9],inactive: 0.134
KANSL2 (UniProt Q9H9L4),log2 fold change,[6],inactive: -0.035
same,log2 fold change,[4],inactive: 0.091
JUN (UniProt P05412),log2 fold change,[6],inactive: -0.06
same,log2 fold change,[4],inactive: -0.033
same,log2 fold change,[5],inactive: 0.074
same,log2 fold change,[2],inactive: 0.163
same,log2 fold change,[3],inactive: -0.134
same,log2 fold change,[7],inactive: 0.003
NA (UniProt J3KR12),log2 fold change,[10],inactive: -0.064
same,log2 fold change,[1],inactive: -0.1
same,log2 fold change,[2],inactive: -0.023
same,log2 fold change,[3],inactive: 0.338
KCTD21 (UniProt Q4G0X4),log2 fold change,[6],inactive: -0.163
same,log2 fold change,[4],inactive: -0.068
same,log2 fold change,[1],inactive: 0.046
same,log2 fold change,[2],inactive: -0.011
same,log2 fold change,[3],inactive: 0.088
same,log2 fold change,[8],inactive: -0.157
same,log2 fold change,[9],inactive: 0
IST1 isoform 2 (UniProt P53990),log2 fold change,[6],inactive: -0.025
same,log2 fold change,[4],inactive: 0.018
same,log2 fold change,[1],inactive: 0.144
same,log2 fold change,[5],inactive: 0.085
same,log2 fold change,[2],inactive: -0.042
same,log2 fold change,[3],inactive: 0.035
same,log2 fold change,[8],inactive: -0.217
same,log2 fold change,[7],inactive: -0.102
same,log2 fold change,[9],inactive: 0.02
JADE2 (UniProt Q9NQC1),log2 fold change,[10],inactive: 0.274
same,log2 fold change,[5],inactive: -0.059
same,log2 fold change,[2],inactive: -0.004
same,log2 fold change,[3],inactive: 0.037
IRF9 (UniProt Q00978),log2 fold change,[6],inactive: -0.184
same,log2 fold change,[4],inactive: 0.09
same,log2 fold change,[5],inactive: -0.122
JAK3 (UniProt P52333),log2 fold change,[10],inactive: 0.254
same,log2 fold change,[1],inactive: 0.06
same,log2 fold change,[7],inactive: -0.041
JPT2 isoform 2 (UniProt Q9H910),log2 fold change,[10],inactive: 0.046
same,log2 fold change,[5],inactive: 0.189
ITIH3 (UniProt Q06033),log2 fold change,[6],inactive: 0.037
same,log2 fold change,[4],inactive: 0.082
same,log2 fold change,[2],inactive: -0.036
same,log2 fold change,[3],inactive: 0.043
KAT14 (UniProt Q9H8E8),log2 fold change,[4],inactive: 0.01
same,log2 fold change,[1],inactive: -0.071
same,log2 fold change,[2],inactive: 0.074
same,log2 fold change,[3],inactive: -0.046
same,log2 fold change,[7],inactive: -0.086
INTS6 (UniProt Q9UL03),log2 fold change,[10],inactive: 0.009
same,log2 fold change,[4],inactive: -0.221
same,log2 fold change,[1],inactive: 0.058
same,log2 fold change,[5],inactive: -0.064
same,log2 fold change,[2],inactive: 0.293
same,log2 fold change,[3],inactive: -0.001
same,log2 fold change,[8],inactive: 0
same,log2 fold change,[7],inactive: 0.007
same,log2 fold change,[9],inactive: 0.109
IQUB (UniProt Q8NA54),log2 fold change,[10],inactive: 0.028
same,log2 fold change,[1],inactive: 0.073
same,log2 fold change,[7],inactive: -0.06
KCTD13 (UniProt Q8WZ19),log2 fold change,[6],inactive: -0.102
same,log2 fold change,[4],inactive: -0.044
same,log2 fold change,[5],inactive: -0.204
same,log2 fold change,[8],inactive: -0.16
same,log2 fold change,[9],inactive: 0.054
JUNB (UniProt P17275),log2 fold change,[10],inactive: -0.075
same,log2 fold change,[5],inactive: 0.025
KCTD2 (UniProt Q14681),log2 fold change,[10],inactive: 0.08
same,log2 fold change,[1],inactive: 0.033
same,log2 fold change,[5],inactive: 0.052
same,log2 fold change,[2],inactive: 0.333
same,log2 fold change,[3],inactive: -0.007
same,log2 fold change,[8],inactive: 0.018
same,log2 fold change,[7],inactive: -0.069
same,log2 fold change,[9],inactive: 0.062
IQCD (UniProt Q96DY2),log2 fold change,[8],inactive: 0.066
same,log2 fold change,[7],inactive: 0.034
same,log2 fold change,[9],inactive: -0.143
KDM2B (UniProt Q8NHM5),log2 fold change,[6],inactive: 0.076
same,log2 fold change,[4],inactive: 0.141
same,log2 fold change,[2],inactive: -0.013
same,log2 fold change,[3],inactive: 0.062
JARID2 (UniProt Q92833),log2 fold change,[8],inactive: 0.062
same,log2 fold change,[9],inactive: -0.037
IQCB1 (UniProt Q15051),log2 fold change,[10],inactive: 0.09
same,log2 fold change,[4],inactive: -0.038
same,log2 fold change,[1],inactive: 0.084
same,log2 fold change,[5],inactive: -0.001
same,log2 fold change,[2],inactive: -0.21
same,log2 fold change,[3],inactive: 0.022
same,log2 fold change,[8],inactive: 0.089
same,log2 fold change,[9],inactive: 0.067
KCTD7 (UniProt Q96MP8),log2 fold change,[6],inactive: -0.168
same,log2 fold change,[4],inactive: 0.053
same,log2 fold change,[1],inactive: -0.391
same,log2 fold change,[5],inactive: 0.136
same,log2 fold change,[2],inactive: -0.051
same,log2 fold change,[3],inactive: -0.104
same,log2 fold change,[7],inactive: -0.042
JOSD1 (UniProt Q15040),log2 fold change,[4],inactive: -0.023
ITFG2 (UniProt H0YGR0),log2 fold change,[6],inactive: 0.154
same,log2 fold change,[1],inactive: 0.152
same,log2 fold change,[5],inactive: 0.071
same,log2 fold change,[7],inactive: 0.029
KCNK1 (UniProt O00180),log2 fold change,[10],inactive: -0.061
same,log2 fold change,[4],inactive: -0.22
same,log2 fold change,[1],inactive: 0.246
same,log2 fold change,[5],inactive: 0.282
same,log2 fold change,[2],inactive: -0.005
same,log2 fold change,[3],inactive: -0.015
same,log2 fold change,[8],inactive: -0.586
same,log2 fold change,[7],inactive: 0.099
same,log2 fold change,[9],inactive: 0.475
KCNK5 (UniProt O95279),log2 fold change,[10],inactive: 0.171
same,log2 fold change,[4],inactive: -0.074
same,log2 fold change,[1],inactive: 0.251
same,log2 fold change,[5],inactive: 0.199
same,log2 fold change,[8],inactive: 0.119
same,log2 fold change,[7],inactive: -0.211
same,log2 fold change,[9],inactive: -0.403
KCNH2 (UniProt Q12809),log2 fold change,[4],inactive: -0.067
JRK isoform 2 (UniProt O75564),log2 fold change,[8],inactive: -0.016
same,log2 fold change,[9],inactive: 0.079
KBTBD6 (UniProt Q86V97),log2 fold change,[10],inactive: -0.049
same,log2 fold change,[8],inactive: -0.229
same,log2 fold change,[9],inactive: -0.059
ITPR3 (UniProt Q14573),log2 fold change,[4],inactive: 0.043
same,log2 fold change,[7],inactive: 0.1
KDF1 (UniProt Q8NAX2),log2 fold change,[4],inactive: 0.17
same,log2 fold change,[1],inactive: 0.111
same,log2 fold change,[8],inactive: 0.131
same,log2 fold change,[7],inactive: 0.029
same,log2 fold change,[9],inactive: -0.099
ITGB1BP2 (UniProt Q9UKP3),log2 fold change,[10],inactive: -0.116
same,log2 fold change,[1],inactive: -0.112
same,log2 fold change,[5],inactive: -0.018
same,log2 fold change,[2],inactive: -0.137
same,log2 fold change,[3],inactive: 0.044
ITPRIP (UniProt Q8IWB1),log2 fold change,[4],active: 0.994
same,log2 fold change,[5],inactive: -0.268
INTU (UniProt Q9ULD6),log2 fold change,[6],inactive: -0.167
same,log2 fold change,[1],inactive: -0.435

# Reformatted with bars between the fields: entries from further up
target | measurement | setting | value
IQCB1 (UniProt Q15051) | log2 fold change | [1] | inactive: 0.084
same | log2 fold change | [5] | inactive: -0.001
same | log2 fold change | [2] | inactive: -0.21
same | log2 fold change | [3] | inactive: 0.022

# 6 entries picked at random from those above:
target,measurement,setting,value
JADE2 (UniProt Q9NQC1),log2 fold change,[3],inactive: 0.037
NA (UniProt J3KR12),log2 fold change,[1],inactive: -0.1
KCTD7 (UniProt Q96MP8),log2 fold change,[4],inactive: 0.053
IST1 isoform 2 (UniProt P53990),log2 fold change,[2],inactive: -0.042
ISG20 (UniProt Q96AZ6),log2 fold change,[4],inactive: 0.007
JOSD1 (UniProt Q15040),log2 fold change,[4],inactive: -0.023
